The supplement of paper PMC10849652
The list shows a part of the results.

Amino acid sequences for entries named in this document (tags omitted). A change or cut given only in a name is not applied to a line headed by its entry.
UniProt Q8N5S9: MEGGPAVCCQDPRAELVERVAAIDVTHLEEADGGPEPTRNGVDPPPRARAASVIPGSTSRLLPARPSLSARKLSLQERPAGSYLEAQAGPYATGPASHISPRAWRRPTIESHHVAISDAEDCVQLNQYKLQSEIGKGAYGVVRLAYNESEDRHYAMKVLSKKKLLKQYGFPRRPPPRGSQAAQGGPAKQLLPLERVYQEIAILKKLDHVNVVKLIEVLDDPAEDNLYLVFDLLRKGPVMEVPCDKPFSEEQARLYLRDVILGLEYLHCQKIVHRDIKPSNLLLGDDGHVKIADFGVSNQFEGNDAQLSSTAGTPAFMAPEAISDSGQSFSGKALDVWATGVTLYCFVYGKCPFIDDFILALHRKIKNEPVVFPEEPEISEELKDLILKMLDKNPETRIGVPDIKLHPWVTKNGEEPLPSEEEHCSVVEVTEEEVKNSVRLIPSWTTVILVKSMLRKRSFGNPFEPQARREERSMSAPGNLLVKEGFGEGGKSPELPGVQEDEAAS
UniProt Q8WUQ7: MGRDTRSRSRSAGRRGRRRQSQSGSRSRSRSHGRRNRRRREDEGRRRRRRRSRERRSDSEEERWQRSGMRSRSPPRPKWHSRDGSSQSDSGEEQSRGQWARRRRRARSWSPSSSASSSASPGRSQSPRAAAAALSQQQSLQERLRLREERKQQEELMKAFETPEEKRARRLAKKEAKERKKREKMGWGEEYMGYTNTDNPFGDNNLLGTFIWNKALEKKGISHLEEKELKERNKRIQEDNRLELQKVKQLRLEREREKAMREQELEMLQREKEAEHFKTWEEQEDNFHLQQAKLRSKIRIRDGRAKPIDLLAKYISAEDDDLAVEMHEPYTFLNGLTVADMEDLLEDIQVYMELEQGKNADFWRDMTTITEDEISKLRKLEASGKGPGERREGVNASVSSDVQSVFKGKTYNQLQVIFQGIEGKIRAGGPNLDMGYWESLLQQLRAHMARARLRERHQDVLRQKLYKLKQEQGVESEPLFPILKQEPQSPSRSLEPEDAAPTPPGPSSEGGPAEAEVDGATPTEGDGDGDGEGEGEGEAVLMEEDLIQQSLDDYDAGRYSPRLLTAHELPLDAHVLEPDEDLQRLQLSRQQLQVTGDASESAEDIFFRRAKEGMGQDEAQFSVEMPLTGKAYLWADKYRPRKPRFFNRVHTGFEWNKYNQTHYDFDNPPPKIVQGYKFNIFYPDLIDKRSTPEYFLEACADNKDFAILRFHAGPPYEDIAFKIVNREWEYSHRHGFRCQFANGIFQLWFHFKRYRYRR
UniProt Q8N1Q1: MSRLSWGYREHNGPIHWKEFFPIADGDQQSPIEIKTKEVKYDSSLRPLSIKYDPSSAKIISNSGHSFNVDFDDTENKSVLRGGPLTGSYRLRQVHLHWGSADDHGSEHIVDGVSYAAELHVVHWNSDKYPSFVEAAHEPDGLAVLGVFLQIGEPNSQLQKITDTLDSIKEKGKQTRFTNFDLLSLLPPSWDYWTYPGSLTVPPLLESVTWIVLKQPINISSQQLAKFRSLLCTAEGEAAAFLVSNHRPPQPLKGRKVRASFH
UniProt Q9NSG2: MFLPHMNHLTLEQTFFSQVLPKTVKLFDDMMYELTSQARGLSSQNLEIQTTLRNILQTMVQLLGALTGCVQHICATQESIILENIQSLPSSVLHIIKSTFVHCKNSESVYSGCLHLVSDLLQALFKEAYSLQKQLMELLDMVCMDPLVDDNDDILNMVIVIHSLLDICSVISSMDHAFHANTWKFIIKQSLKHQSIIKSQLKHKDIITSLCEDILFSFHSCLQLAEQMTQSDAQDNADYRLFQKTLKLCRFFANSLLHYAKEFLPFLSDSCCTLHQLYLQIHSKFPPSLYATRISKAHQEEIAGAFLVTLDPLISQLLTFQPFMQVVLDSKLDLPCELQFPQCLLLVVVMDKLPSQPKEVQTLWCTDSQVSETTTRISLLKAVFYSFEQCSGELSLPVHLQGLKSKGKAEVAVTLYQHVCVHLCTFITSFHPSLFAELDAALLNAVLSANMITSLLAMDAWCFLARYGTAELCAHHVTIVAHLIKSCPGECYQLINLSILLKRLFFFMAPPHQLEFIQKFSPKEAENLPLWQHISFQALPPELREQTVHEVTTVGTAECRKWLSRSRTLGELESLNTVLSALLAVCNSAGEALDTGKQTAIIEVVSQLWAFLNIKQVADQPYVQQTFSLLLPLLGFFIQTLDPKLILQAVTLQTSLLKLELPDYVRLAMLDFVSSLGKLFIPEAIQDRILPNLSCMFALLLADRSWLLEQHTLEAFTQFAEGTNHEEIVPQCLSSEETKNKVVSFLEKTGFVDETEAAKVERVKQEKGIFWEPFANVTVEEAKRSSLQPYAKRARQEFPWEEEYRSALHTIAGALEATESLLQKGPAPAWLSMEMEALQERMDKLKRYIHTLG
UniProt Q6ZSJ8: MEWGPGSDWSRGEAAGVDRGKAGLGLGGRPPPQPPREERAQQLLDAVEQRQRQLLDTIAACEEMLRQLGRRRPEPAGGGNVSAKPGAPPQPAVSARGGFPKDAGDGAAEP
UniProt P40121: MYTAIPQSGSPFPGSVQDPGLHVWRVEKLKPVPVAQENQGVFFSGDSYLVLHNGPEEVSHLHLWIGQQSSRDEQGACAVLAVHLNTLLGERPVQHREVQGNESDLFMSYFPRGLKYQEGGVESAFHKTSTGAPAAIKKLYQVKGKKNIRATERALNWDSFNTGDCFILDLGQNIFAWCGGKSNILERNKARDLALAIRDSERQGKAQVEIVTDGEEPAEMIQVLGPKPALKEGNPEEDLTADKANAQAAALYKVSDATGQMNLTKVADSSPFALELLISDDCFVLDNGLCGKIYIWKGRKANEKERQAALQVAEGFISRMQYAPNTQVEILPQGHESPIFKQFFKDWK
UniProt Q9Y2V0: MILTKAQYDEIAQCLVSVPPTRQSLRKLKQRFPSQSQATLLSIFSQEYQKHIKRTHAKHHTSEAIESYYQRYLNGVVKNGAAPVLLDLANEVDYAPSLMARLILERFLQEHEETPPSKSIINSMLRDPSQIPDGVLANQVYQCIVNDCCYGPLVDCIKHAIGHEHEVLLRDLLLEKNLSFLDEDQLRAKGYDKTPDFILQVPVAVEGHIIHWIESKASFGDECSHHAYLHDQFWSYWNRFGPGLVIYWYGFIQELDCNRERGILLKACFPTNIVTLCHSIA
UniProt P07384: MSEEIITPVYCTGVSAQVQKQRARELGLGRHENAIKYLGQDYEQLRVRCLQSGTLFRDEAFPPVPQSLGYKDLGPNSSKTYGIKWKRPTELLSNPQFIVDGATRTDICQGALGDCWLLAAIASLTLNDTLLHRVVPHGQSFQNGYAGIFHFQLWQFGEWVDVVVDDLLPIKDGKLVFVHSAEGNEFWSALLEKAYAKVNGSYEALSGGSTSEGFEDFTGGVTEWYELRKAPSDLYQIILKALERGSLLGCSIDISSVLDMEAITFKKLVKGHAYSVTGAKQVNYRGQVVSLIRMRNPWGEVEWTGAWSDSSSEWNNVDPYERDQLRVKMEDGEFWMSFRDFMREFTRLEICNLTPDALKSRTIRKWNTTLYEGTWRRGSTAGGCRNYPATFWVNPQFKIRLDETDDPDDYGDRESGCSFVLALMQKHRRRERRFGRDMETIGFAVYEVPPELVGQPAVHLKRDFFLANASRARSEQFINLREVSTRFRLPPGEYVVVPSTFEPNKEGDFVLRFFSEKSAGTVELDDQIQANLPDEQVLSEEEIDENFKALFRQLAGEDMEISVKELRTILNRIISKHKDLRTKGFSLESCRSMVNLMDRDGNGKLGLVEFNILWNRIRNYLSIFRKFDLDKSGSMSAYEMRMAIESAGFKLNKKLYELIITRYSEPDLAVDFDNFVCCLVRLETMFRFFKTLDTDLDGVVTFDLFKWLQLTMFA
UniProt Q9Y6W3: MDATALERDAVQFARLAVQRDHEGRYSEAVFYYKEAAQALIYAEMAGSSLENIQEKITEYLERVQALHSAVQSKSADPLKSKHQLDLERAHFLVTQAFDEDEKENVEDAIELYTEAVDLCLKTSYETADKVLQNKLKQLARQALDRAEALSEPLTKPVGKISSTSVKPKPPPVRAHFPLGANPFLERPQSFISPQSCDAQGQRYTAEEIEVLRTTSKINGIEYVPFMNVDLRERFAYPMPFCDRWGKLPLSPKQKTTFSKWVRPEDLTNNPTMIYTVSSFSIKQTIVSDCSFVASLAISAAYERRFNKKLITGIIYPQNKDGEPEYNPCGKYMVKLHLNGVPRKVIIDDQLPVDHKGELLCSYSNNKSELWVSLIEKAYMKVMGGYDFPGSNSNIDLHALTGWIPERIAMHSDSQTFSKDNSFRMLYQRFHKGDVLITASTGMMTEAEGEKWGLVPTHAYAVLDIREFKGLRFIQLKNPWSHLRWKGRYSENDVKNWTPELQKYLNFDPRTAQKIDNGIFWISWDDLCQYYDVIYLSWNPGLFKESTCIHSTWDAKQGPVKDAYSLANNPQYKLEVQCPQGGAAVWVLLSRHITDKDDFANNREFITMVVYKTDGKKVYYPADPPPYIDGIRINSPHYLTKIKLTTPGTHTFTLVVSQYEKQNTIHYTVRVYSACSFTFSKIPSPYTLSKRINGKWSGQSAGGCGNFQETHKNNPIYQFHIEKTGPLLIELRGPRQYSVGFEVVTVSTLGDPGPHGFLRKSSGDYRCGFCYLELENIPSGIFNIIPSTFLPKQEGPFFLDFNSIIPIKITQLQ
UniProt P00915: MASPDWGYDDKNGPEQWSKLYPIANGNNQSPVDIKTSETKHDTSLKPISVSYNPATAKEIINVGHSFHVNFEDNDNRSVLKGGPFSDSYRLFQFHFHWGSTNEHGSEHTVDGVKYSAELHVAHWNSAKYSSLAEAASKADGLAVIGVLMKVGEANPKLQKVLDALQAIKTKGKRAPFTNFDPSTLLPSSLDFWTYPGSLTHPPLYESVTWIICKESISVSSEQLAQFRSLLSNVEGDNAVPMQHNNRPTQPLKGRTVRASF
UniProt Q2NKX9: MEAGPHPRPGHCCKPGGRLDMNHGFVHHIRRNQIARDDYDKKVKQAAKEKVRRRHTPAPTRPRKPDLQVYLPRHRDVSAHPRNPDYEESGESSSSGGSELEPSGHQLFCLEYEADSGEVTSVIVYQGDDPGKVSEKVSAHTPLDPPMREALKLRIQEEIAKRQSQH
UniProt Q9NZ63: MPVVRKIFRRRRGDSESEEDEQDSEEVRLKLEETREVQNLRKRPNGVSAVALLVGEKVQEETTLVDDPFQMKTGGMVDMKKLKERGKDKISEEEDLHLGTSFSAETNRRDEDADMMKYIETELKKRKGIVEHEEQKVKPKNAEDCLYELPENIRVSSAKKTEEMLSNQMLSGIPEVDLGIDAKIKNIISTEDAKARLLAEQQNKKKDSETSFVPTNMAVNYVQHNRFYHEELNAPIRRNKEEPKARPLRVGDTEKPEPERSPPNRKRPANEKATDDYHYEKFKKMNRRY
UniProt O75155: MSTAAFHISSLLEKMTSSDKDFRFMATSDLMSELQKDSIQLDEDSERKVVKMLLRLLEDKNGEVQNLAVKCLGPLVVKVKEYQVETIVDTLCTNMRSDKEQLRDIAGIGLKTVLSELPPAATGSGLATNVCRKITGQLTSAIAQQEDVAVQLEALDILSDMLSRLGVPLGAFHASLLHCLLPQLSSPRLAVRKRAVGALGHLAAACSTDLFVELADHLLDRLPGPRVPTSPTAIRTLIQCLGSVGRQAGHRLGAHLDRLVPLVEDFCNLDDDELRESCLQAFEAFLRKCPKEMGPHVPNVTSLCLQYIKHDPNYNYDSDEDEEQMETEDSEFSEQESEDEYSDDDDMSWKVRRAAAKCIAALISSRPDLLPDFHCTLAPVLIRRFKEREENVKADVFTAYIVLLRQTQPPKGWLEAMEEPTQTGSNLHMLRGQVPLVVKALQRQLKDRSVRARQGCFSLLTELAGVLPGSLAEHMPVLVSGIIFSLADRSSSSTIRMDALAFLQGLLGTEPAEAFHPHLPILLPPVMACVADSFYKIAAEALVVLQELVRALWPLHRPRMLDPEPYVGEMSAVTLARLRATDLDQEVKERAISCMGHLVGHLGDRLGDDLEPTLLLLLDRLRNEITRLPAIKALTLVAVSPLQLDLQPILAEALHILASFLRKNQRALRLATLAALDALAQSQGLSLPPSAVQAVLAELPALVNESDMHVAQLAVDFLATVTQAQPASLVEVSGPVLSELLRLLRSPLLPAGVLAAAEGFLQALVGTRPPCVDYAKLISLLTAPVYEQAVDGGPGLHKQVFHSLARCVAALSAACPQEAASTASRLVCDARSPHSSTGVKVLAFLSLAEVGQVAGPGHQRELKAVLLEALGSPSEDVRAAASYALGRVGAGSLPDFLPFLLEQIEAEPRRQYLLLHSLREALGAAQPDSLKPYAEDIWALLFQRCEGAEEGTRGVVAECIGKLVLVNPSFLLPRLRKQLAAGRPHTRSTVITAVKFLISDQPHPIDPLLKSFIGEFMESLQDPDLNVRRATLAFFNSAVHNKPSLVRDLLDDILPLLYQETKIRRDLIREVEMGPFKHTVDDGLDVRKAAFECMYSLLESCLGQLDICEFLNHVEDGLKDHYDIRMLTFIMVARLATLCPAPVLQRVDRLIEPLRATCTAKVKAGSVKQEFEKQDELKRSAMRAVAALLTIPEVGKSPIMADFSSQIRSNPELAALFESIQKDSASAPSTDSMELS

Columns and labels:
Test in all cases: log2 fold change, soluble protein after heating vs DMSO (PISA); higher = thermal stabilisation; K562 lysate, 10 uM; active = over 0.2 and 3.5 SD of the protein, either way, in both replicates (recomputed)
ibrutinib = compound: C=CC(=O)N1CCC[C@@H](n2nc(-c3ccc(Oc4ccccc4)cc3)c3c(N)ncnc32)C1 [ibrutinib]
Procedure, shortened: (§1)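 Pellets of K562 cells were dounce-homogenised in PBS pH 7.4 with 1 mM MgCl2, and the crude extract was held at 1 mg/mL protein for a 30 min treatment with 10 μM compound. Aliquots were heated for 3 min over 48°C-58°C and pooled before NP-40 was added to 0.5% at 4°C. The supernatant from 21,000xg for 90 min was quantified by TMTpro 16plex LC-MS/MS with channel sums equalised. Values are reported from duplicates as log-two fold change in thermal stability relative to solvent controls.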

[1] = compound: CC(=O)c1cnc2ccc(-c3cc(Cl)c(O)c(Cl)c3)nc2c1N[C@H]1CC[C@H](CN(C)C)CC1
Procedure, shortened: as §1

ralimetinib = compound: CC(C)(C)Cn1c(N)nc2ccc(-c3[nH]c(C(C)(C)C)nc3-c3ccc(F)cc3)nc21 [ralimetinib]
Procedure, shortened: as §1

[2] = compound: CC(C)(O)CC(=O)NCCn1ccc2ncnc(Nc3ccc(Oc4cccc(C(F)(F)F)c4)c(Cl)c3)c21
Procedure, shortened: as §1

[3] = compound: CC(C)C1=C2N=C(C=C(N2N=C1)NCC3=CC=CC=C3)NCCCCCCN
Procedure, shortened: as §1

[4] = compound: CC1=C(C(CC(=O)N1)C2=CC=C(C=C2)C(F)(F)F)C(=O)NC3=C(C=C4C(=C3)C=NN4)F
Procedure, shortened: as §1

[5] = compound: CC1=C(C2=C(C=C1)C(=O)C3=CC=CC=C3N2CCCN)C
Procedure, shortened: as §1

[6] = compound: CC1=C(C=C(C=C1)NC(=O)C2=CC(=CC=C2)C(C)(C)C#N)NC3=CC4=C(C=C3)N=CN(C4=O)C
Procedure, shortened: as §1

[7] = compound: CC1=C(C=C(C=C1)NC(=O)C2=CC(=CC=C2)N(C)C)NC(=O)C3=CC=C(C=C3)O
Procedure, shortened: as §1

[8] = compound: CC1=CC=C(C=C1)SC2=C3C=C(SC3=CN=C2)C(=O)N
Procedure, shortened: as §1

vemurafenib = compound: CCCS(=O)(=O)Nc1ccc(F)c(C(=O)c2c[nH]c3ncc(-c4ccc(Cl)cc4)cc23)c1F [vemurafenib]
Procedure, shortened: as §1

[9] = compound: CCCS(=O)(=O)Nc1ccc(F)c(C(=O)c2c[nH]c3ncc(Cl)cc23)c1F
Procedure, shortened: as §1

barasertib = compound: CCN(CCCOc1ccc2c(Nc3cc(CC(=O)Nc4cccc(F)c4)[nH]n3)ncnc2c1)CCOP(=O)(O)O [barasertib]
Procedure, shortened: as §1

[10] = compound: CC[C@@H]1C(=O)N(C)c2cnc(Nc3ccc(C(=O)NC4CCN(C)CC4)cc3OC)nc2N1C1CCCC1
Procedure, shortened: as §1

volasertib = compound: CC[C@@H]1C(=O)N(C)c2cnc(Nc3ccc(C(=O)N[C@H]4CC[C@H](N5CCN(CC6CC6)CC5)CC4)cc3OC)nc2N1C(C)C [volasertib]
Procedure, shortened: as §1

[11] = compound: CCn1c(C(=O)N(C2CC2)C2CC2)cc2c3c(ncn3C)c(Nc3cc(C)n(C)n3)nc21
Procedure, shortened: as §1

[12] = compound: CCn1cc(-c2ccnc3[nH]c(-c4cccc(CN(C)C)c4)cc23)c(-c2ccc(NC(=O)N(C)C)cc2)n1
Procedure, shortened: as §1

[13] = compound: CN1CCC(CNc2ccc3ncc(-c4cccc(OC(F)(F)F)c4)n3n2)CC1
Procedure, shortened: as §1

saracatinib = compound: CN1CCN(CCOc2cc(OC3CCOCC3)c3c(Nc4c(Cl)ccc5c4OCO5)ncnc3c2)CC1 [saracatinib]
Procedure, shortened: as §1

sotrastaurin = compound: CN1CCN(c2nc(C3=C(c4c[nH]c5ccccc45)C(=O)NC3=O)c3ccccc3n2)CC1 [sotrastaurin]
Procedure, shortened: as §1

Measured: log2 fold change

CAMKK1 isoform 2 (UniProt Q8N5S9)
inactive: ibrutinib 0.027 | [1] 0.189 | ralimetinib 0.063 | [2] -0.153 | [3] -0.059 | [4] -0.008 | [5] -0.055 | [6] 0.014 | [7] 0.004 | [8] 0.138 | vemurafenib -0.041 | [9] -0.062 | barasertib 0.11 | [10] 0.103 | volasertib 0.136 | [11] 0.115 | [12] -0.204 | [13] 0.041 | saracatinib -0.063 | sotrastaurin -0.013

CACTIN isoform 2 (UniProt Q8WUQ7)
inactive: ibrutinib 0.05 | [1] 0.116 | ralimetinib -0.076 | [2] 0.033 | [3] 0.035 | [4] 0.118 | [5] 0.011 | [6] 0.029 | [7] -0.036 | [8] 0.063 | vemurafenib -0.024 | [9] 0.048 | barasertib -0.055 | [10] 0.039 | volasertib 0 | [11] -0.101 | [12] 0.116 | [13] -0.048 | saracatinib 0.025 | sotrastaurin 0.005

CA13 (UniProt Q8N1Q1)
inactive: ibrutinib 0.084 | [1] 0.032 | ralimetinib -0.044 | [2] 0.004 | [3] -0.047 | [4] -0.014 | [5] -0.011 | [6] 0.013 | [7] -0.096 | [8] -0.011 | vemurafenib -0.019 | [9] 0.006 | barasertib -0.01 | [10] 0.021 | volasertib -0.05 | [11] -0.007 | [12] -0.03 | [13] 0.002 | saracatinib 0.046 | sotrastaurin -0.041

C1orf112 (UniProt Q9NSG2)
inactive: ibrutinib 0.014 | [1] 0.038 | ralimetinib 0.022 | [2] -0.061 | [3] 0.017 | [4] 0.067 | [5] -0.085 | [6] -0.029 | [7] 0.036 | [8] 0.091 | vemurafenib 0 | [9] 0.006 | barasertib -0.04 | [10] -0.065 | volasertib 0.034 | [11] 0.037 | [12] 0.171 | [13] -0.059 | saracatinib 0.065 | sotrastaurin 0.025

C2orf69 (UniProt Q8N8R5)
inactive: ibrutinib 0.002 | [1] 0.004 | ralimetinib 0.077 | [2] -0.031 | [3] -0.017 | [4] -0.09 | [5] 0.006 | [6] -0.007 | [7] 0.064 | [8] -0.048 | vemurafenib -0.069 | [9] 0.027 | barasertib 0.016 | [10] 0.007 | volasertib 0.021 | [11] 0.025 | [12] -0.077 | [13] 0.146 | saracatinib 0.001 | sotrastaurin 0.023

C7orf50 (UniProt Q9BRJ6)
inactive: ibrutinib 0.053 | [1] -0.017 | ralimetinib 0.05 | [2] -0.038 | [3] 0.018 | [4] 0.004 | [5] -0.139 | [6] 0.001 | [7] 0.043 | [8] 0.009 | vemurafenib -0.007 | [9] 0.047 | barasertib 0.026 | [10] -0.014 | volasertib 0.048 | [11] -0.084 | [12] 0.004 | [13] -0.019 | saracatinib -0.041 | sotrastaurin 0.005

C1orf122 (UniProt Q6ZSJ8)
inactive: ibrutinib -0.014 | [1] -0.039 | ralimetinib 0.026 | [2] -0.049 | [3] -0.01 | [4] -0.034 | [5] -0.056 | [6] 0.141 | [7] 0 | [8] -0.008 | vemurafenib 0.006 | [9] 0.005 | barasertib -0.158 | [10] 0.148 | volasertib 0.037 | [11] 0.033 | [12] -0.028 | [13] 0.038 | saracatinib 0.005 | sotrastaurin -0.051

CAPG (UniProt P40121)
inactive: ibrutinib 0.002 | [1] -0.004 | ralimetinib -0.013 | [2] -0.015 | [3] 0.026 | [4] 0.034 | [5] -0.011 | [6] -0.031 | [7] 0.01 | [8] 0.003 | vemurafenib 0.013 | [9] -0.01 | barasertib -0.032 | [10] -0.026 | volasertib 0.002 | [11] -0.03 | [12] -0.058 | [13] 0.01 | saracatinib 0.015 | sotrastaurin 0.011

C15orf41 (UniProt Q9Y2V0)
inactive: ibrutinib -0.028 | [1] -0.013 | ralimetinib -0.018 | [2] -0.029 | [3] 0.063 | [4] 0.006 | [5] 0.045 | [6] 0.023 | [7] 0.13 | [8] -0.106 | vemurafenib 0.151 | [9] 0.005 | barasertib 0.095 | [10] -0.089 | volasertib 0.041 | [11] -0.049 | [12] -0.143 | [13] 0.037 | saracatinib -0.018 | sotrastaurin -0.016

CAPN1 (UniProt P07384)
inactive: ibrutinib 0.01 | [1] -0.002 | ralimetinib 0.023 | [2] -0.005 | [3] 0.011 | [4] 0.007 | [5] -0.027 | [6] 0.02 | [7] -0.018 | [8] -0.018 | vemurafenib 0.008 | [9] 0.001 | barasertib -0.028 | [10] 0.034 | volasertib 0.03 | [11] -0.011 | [12] 0.027 | [13] 0.006 | saracatinib -0.026 | sotrastaurin 0.023

CAPN7 (UniProt Q9Y6W3)
inactive: ibrutinib 0.022 | [1] -0.004 | ralimetinib 0.021 | [2] -0.002 | [3] 0.01 | [4] 0.004 | [5] -0.006 | [6] 0.039 | [7] 0.049 | [8] -0.029 | vemurafenib -0.034 | [9] 0.02 | barasertib 0.029 | [10] -0.008 | volasertib 0.012 | [11] -0.013 | [12] -0.032 | [13] 0.03 | saracatinib -0.002 | sotrastaurin -0.011

CA1 (UniProt P00915)
inactive: ibrutinib 0.015 | [1] -0.023 | ralimetinib 0.001 | [2] -0.035 | [3] 0.003 | [4] -0.004 | [5] 0.001 | [6] 0.023 | [7] 0.01 | [8] -0.001 | vemurafenib -0.002 | [9] -0.015 | barasertib 0.03 | [10] 0.012 | volasertib 0.028 | [11] -0.027 | [12] -0.099 | [13] 0.078 | saracatinib -0.004 | sotrastaurin -0.011

C2orf68 (UniProt Q2NKX9)
inactive: ibrutinib 0.134 | [1] 0.02 | ralimetinib -0.147 | [2] -0.001 | [3] 0.021 | [4] 0.139 | [5] 0.126 | [6] 0.03 | [7] -0.069 | [8] -0.052 | vemurafenib -0.014 | [9] 0.048 | barasertib -0.018 | [10] 0.038 | volasertib 0.007 | [11] 0.069 | [12] -0.016 | [13] -0.012 | saracatinib 0.057 | sotrastaurin 0.081

CANT1 (UniProt Q8WVQ1)
inactive: ibrutinib -0.001 | [1] 0.02 | ralimetinib 0.008 | [2] 0.013 | [3] -0.016 | [4] 0.051 | [5] 0.004 | [6] -0.035 | [7] -0.04 | [8] -0.001 | vemurafenib 0.008 | [9] -0.002 | barasertib 0.031 | [10] -0.022 | volasertib -0.028 | [11] -0.014 | [12] 0.016 | [13] 0.01 | saracatinib 0.006 | sotrastaurin -0.026

C9orf78 (UniProt Q9NZ63)
inactive: ibrutinib 0.029 | [1] 0.014 | ralimetinib -0.004 | [2] 0.067 | [3] -0.014 | [4] -0.039 | [5] -0.001 | [6] -0.044 | [7] 0.01 | [8] -0.009 | vemurafenib -0.014 | [9] -0.016 | barasertib -0.026 | [10] 0.1 | volasertib 0.042 | [11] 0.005 | [12] 0.092 | [13] -0.041 | saracatinib 0.002 | sotrastaurin 0.012

CAND2 (UniProt O75155)
inactive: ibrutinib -0.015 | [1] -0.009 | ralimetinib -0.041 | [2] -0.048 | [3] -0.03 | [4] -0.005 | [5] -0.005 | [6] -0.008 | [7] 0.036 | [8] -0.009 | vemurafenib -0.032 | [9] 0.007 | barasertib -0.012 | [10] 0.033 | volasertib 0.011 | [11] -0.007 | [12] 0.006 | [13] -0.027 | saracatinib 0.002 | sotrastaurin 0.011
